Laboratory results reported in paper doi:10.1101/2023.05.08.539894.
Results are given in words; binding and its absence hold for the method and conditions named. Binding seen in cells or lysates may run through a third protein.

B1: PITP membrane associated 2 (PITPNM2), endogenous (protein, UniProt Q9BZ72 1-1349)
chain: MIIKEYRIPLPMTVEEYRIAQLYMIQKKSRNETYGEGSGVEILENRPYTDGPGGSGQYTHKVYHVGMHIPSWFRSILPKAALRVVEESWNAYPYTRTRFTCPFVEKFSIDIETFYKTDAGENPDVFNLSPVEKNQLTIDFIDIVKDPVPHNEYKTEEDPKLFQSTKTQRGPLSENWIEEYKKQVFPIMCAYKLCKVEFRYWGMQSKIERFIHDTGLRRVMVRAHRQAWCWQDEWYGLSMENIRELEKEAQLMLSRKMAQFNEDGEEATELVKHEAVSDQTSGEPPEPSSSNGEPLVGRGLKKQWSTSSKSSRSSKRGASPSRHSISEWRMQSIARDSDESSDDEFFDAHEDLSDTEEMFPKDITKWSSNDLMDKIESPEPEDTQDGLYRQGAPEFRVASSVEQLNIIEDEVSQPLAAPPSKIHVLLLVLHGGTILDTGAGDPSSKKGDANTIANVFDTVMRVHYPSALGRLAIRLVPCPPVCSDAFALVSNLSPYSHDEGCLSSSQDHIPLAALPLLATSSPQYQEAVATVIQRANLAYGDFIKSQEGMTFNGQVCLIGDCVGGILAFDALCYSNQPVSESQSSSRRGSVVSMQDNDLLSPGILMNAAHCCGGGGGGGGGGGSSGGGGSSGGSSLESSRHLSRSNVDIPRSNGTEDPKRQLPRKRSDSSTYELDTIQQHQAFLSSLHASVLRTEPCSRHSSSSTMLDGTGALGRFDFEITDLFLFGCPLGLVLALRKTVIPALDVFQLRPACQQVYNLFHPADPSASRLEPLLERRFHALPPFSVPRYQRYPLGDGCSTLLADVLQTHNAAFQEHGAPSSPGTAPASRGFRRASEISIASQVSGMAESYTASSIAQKAPDALSHTPSVRRLSLLALPAPSPTTPGPHPPARKASPGLERAPGLPELDIGEVAAKWWGQKRIDYALYCPDALTAFPTVALPHLFHASYWESTDVVSFLLRQVMRHDNSSILELDGKEVSVFTPSKPREKWQRKRTHVKLRNVTANHRINDALANEDGPQVLTGRFMYGPLDMVTLTGEKVDVHIMTQPPSGEWLYLDTLVTNNSGRVSYTIPESHRLGVGVYPIKMVVRGDHTFADSYITVLPKGTEFVVFSIDGSFAASVSIMGSDPKVRAGAVDVVRHWQDLGYLIIYVTGRPDMQKQRVVAWLAQHNFPHGVVSFCDGLVHDPLRHKANFLKLLISELHLRVHAAYGSTKDVAVYSAISLSPMQIYIVGRPTKKLQQQCQFITDGYAAHLAQLKYSHRARPARNTATRMALRKGSFGLPGQGDFLRSRNHLLRTISAQPSGPSHRHERTQSQADGEQRGQRSMSVAAGCWGRAMTGRLEPGAAAGPK
B2: PITP membrane associated 1 (PITPNM1), endogenous (protein, UniProt O00562 1-1244)
chain: MLIKEYHILLPMSLDEYQVAQLYMIQKKSREESSGEGSGVEILANRPYTDGPGGSGQYTHKVYHVGSHIPGWFRALLPKAALQVEEESWNAYPYTRTRYTCPFVEKFSIEIETYYLPDGGQQPNVFNLSGAERRQRILDTIDIVRDAVAPGEYKAEEDPRLYHSVKTGRGPLSDDWARTAAQTGPLMCAYKLCKVEFRYWGMQAKIEQFIHDVGLRRVMLRAHRQAWCWQDEWTELSMADIRALEEETARMLAQRMAKCNTGSEGSEAQPPGKPSTEARSAASNTGTPDGPEAPPGPDASPDASFGKQWSSSSRSSYSSQHGGAVSPQSLSEWRMQNIARDSENSSEEEFFDAHEGFSDSEEVFPKEMTKWNSNDFIDAFASPVEAEGTPEPGAEAAKGIEDGAQAPRDSEGLDGAGELGAEACAVHALFLILHSGNILDSGPGDANSKQADVQTLSSAFEAVTRIHFPEALGHVALRLVPCPPICAAAYALVSNLSPYSHDGDSLSRSQDHIPLAALPLLATSSSRYQGAVATVIARTNQAYSAFLRSPEGAGFCGQVALIGDGVGGILGFDALCHSANAGTGSRGSSRRGSMNNELLSPEFGPVRDPLADGVEGLGRGSPEPSALPPQRIPSDMASPEPEGSQNSLQAAPATTSSWEPRRASTAFCPPAASSEAPDGPSSTARLDFKVSGFFLFGSPLGLVLALRKTVMPALEAAQMRPACEQIYNLFHAADPCASRLEPLLAPKFQAIAPLTVPRYQKFPLGDGSSLLLADTLQTHSSLFLEELEMLVPSTPTSTSGAFWKGSELATDPPAQPAAPSTTSEVVKILERWWGTKRIDYSLYCPEALTAFPTVTLPHLFHASYWESADVVAFILRQVIEKERPQLAECEEPSIYSPAFPREKWQRKRTQVKIRNVTSNHRASDTVVCEGRPQVLSGRFMYGPLDVVTLTGEKVDVYIMTQPLSGKWIHFGTEVTNSSGRLTFPVPPERALGIGVYPVRMVVRGDHTYAECCLTVVARGTEAVVFSIDGSFTASVSIMGSDPKVRAGAVDVVRHWQDSGYLIVYVTGRPDMQKHRVVAWLSQHNFPHGVVSFCDGLTHDPLRQKAMFLQSLVQEVELNIVAGYGSPKDVAVYAALGLSPSQTYIVGRAVRKLQAQCQFLSDGYVAHLGQLEAGSHSHASSGPPRAALGKSSYGVAAPVDFLRKQSQLLRSRGPSQAEREGPGTPPTTLARGKARSISLKLDSEE
B3: PITP cytoplasmic 1 (PITPNC1), endogenous (protein, UniProt Q9UKF7 1-332)
chain: MLLKEYRICMPLTVDEYKIGQLYMISKHSHEQSDRGEGVEVVQNEPFEDPHHGNGQFTEKRVYLNSKLPSWARAVVPKIFYVTEKAWNYYPYTITEYTCSFLPKFSIHIETKYEDNKGSNDTIFDNEAKDVEREVCFIDIACDEIPERYYKESEDPKHFKSEKTGRGQLREGWRDSHQPIMCSYKLVTVKFEVWGLQTRVEQFVHKVVRDILLIGHRQAFAWVDEWYDMTMDEVREFERATQEATNKKIGIFPPAISISSIPLLPSSVRSAPSSAPSTPLSTDAPEFLSVPKDRPRKKSAPETLTLPDPEKKATLNLPGMHSSDKPCRPKSE

The binders below were run against mutant p53 V157F, endogenous in HS578T cells (human (endogenous in HS578T)) (UniProt P04637) (assay: co-IP).

binding, no binding:
B1
B2
B3

These binders were tested against mutant p53 R249S, endogenous in BT-549 cells (human (endogenous in BT-549)) (UniProt P04637) (assay: co-IP).

binding, no binding:
B1
B2
B3
